Assay results published in PubChem BioAssay AID638 (SRMLSC, 2007).
The whole screen tested about 1,300 compounds, of which about 65 (5%) were called active.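 Rule for the calls: active = growth inhibition reaching a set limit at one or more tested doses; inactive = the rest.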 Some of the results follow. Entries with a potency or affinity are not part of this list.

Assay: growth inhibition of wild-type E. coli, dose response, BW25113 wild type, OD615 (AID 638)
Conditions: at 100 µM (top of the series) unless noted
How it was run: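 Assay system: E. coli BW25113 wild type. Doses: compound concentration series. Timing: 20 h compound exposure, 37 °C. Technique: OD615 absorbance. Medium: LB broth containing kanamycin at 50 µg/mL. Benchmarks: chloramphenicol at 30 µM final as inhibition control. Measure: IC50 from 4-parameter logistic, bounds fixed 0–100%.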
In the case of `O=C(c1noc2c1CCc1ccccc1-2)N1CCc2ccccc2C1`, the growth inhibition is reported as inactive: 2.46%.
With `Cc1c(CCC(=O)O)c(=O)oc2cc3occ(-c4ccc(F)cc4)c3cc12` the growth inhibition was inactive: -11.1%.
With `O=C(CCSc1nc(-c2ccco2)cc(C(F)(F)F)n1)N1CCCc2ccccc21` the growth inhibition was inactive: 10.2%.
With `CC1CN(S(=O)(=O)c2ccc(C(=O)Nc3nnc(-c4ccc5c(c4)CCCC5)o3)cc2)CC(C)O1` (configuration not stated) the growth inhibition was inactive: -1.85%.
In the case of `Cc1cc(Nc2ccccc2)nc(-c2ccccc2O)n1`, the growth inhibition is reported as inactive: -4.57%.
For `CCn1cc(C(=O)OCC(=O)OC2CC(C)CCC2C(C)C)c(=O)c2ccc(C)nc21` (configuration not stated), the growth inhibition was inactive: 1.12%.
For `CC1=CCC(COC(=O)Nc2ccccc2)CC1` (configuration not stated), the growth inhibition was inactive: 10.3%.
For `COC(=O)c1[nH]c2cccc(OC)c2c1NC(=O)CN1CC2(C)CC1CC(C)(C)C2` (configuration not stated), the growth inhibition was inactive: 14%.
For `C=CCOC(=O)C(C#N)c1nc2ccccc2nc1N1CCCC1` (configuration not stated), the growth inhibition was inactive: -1.85%.
In the case of `CCOC(=O)c1cn(CC)c2cc(N3CCSCC3)c(F)cc2c1=O`, the growth inhibition is reported as inactive: 10.1%.
In the case of `COCc1cc(C)nc2sc3c(=O)oc(C)nc3c12`, the growth inhibition is reported as inactive: 10.4%.
For `Cc1nc2ncnn2c(N2CCN(C(c3ccccc3)c3ccccc3)CC2)c1C`, the growth inhibition was inactive: 0.39%.
With `O=C(COC(=O)c1ccc(Oc2ccccc2)cc1)Nc1nnc(-c2ccccc2)o1` the growth inhibition was inactive: -3.62%.
In the case of `Cc1cc(=O)[nH]c(SCC(=O)C23CC4CC(CC(C4)C2)C3)c1C#N`, the growth inhibition is reported as inactive: -9.63%.
For `CCOC(=O)c1ccccc1NC(=O)C(C)Oc1ccccc1` (configuration not stated), the growth inhibition was inactive: -0.25%.
With `CCCOc1ccccc1NC(=O)c1c(-c2ccccc2)noc1C` the growth inhibition was inactive: 4.48%.
In the case of `Cc1ccc(Cl)cc1N1CCN(C(=O)c2ccc(NS(=O)(=O)c3c(C)noc3C)cc2)CC1`, the growth inhibition is reported as inactive: -7.75%.
With `CCCCOc1ccc(S(=O)(=O)N2CCCCCC2)cc1` the growth inhibition was inactive: 6.59%.
For `O=C(Nc1nnc(-c2ccc(F)cc2)o1)c1ccco1`, the growth inhibition was inactive: 1.59%.
With `CC1CCCCN1C(=O)CSc1nc(C2CC2)nc2c1cnn2-c1ccccc1` (configuration not stated) the growth inhibition was inactive: -10.1%.
With `CCOC(=O)N1CCC(c2cc(=O)n3[nH]c(C)c(-c4ccc(F)cc4)c3n2)CC1` the growth inhibition was inactive: -7.78%.
In the case of `CC(=O)c1c(O)cc(C)n(Nc2nc(C)cc(C)n2)c1=O`, the growth inhibition is reported as inactive: -10.9%.
For `Cc1cccc(Cc2c(C)nc3c(C(=O)NCc4ccco4)cnn3c2C)c1`, the growth inhibition was inactive: -16.1%.
With `O=C(c1ccc(COc2ccccc2Br)o1)N1CCCCCC1` the growth inhibition was inactive: 6.17%.
With `Cc1nc2ccc(C(C(F)(F)F)(C(F)(F)F)C(F)(F)F)cc2[nH]1` the growth inhibition was inactive: 8.28%.
For `Cc1nn(-c2nc3ccccc3[nH]2)c(N)c1-c1ccccc1`, the growth inhibition was inactive: -4.59%.
In the case of `CCOC(=O)c1cc(C)n(S(=O)(=O)c2ccc(C)cc2)c1C`, the growth inhibition is reported as inactive: 8.21%.
In the case of `O=C1OC(c2ccc(O)cc2)(c2ccc(O)cc2)c2ccccc21`, the growth inhibition is reported as active: 24.6%.
In the case of `COc1cccc(-c2cc(C(=O)N3CC4(C)CC3CC(C)(C)C4)no2)c1` (configuration not stated), the growth inhibition is reported as inactive: 6.59%.
For `CCN(C(=O)c1cc2cc3ccc(C)cc3nc2o1)c1ccc(OC)cc1`, the growth inhibition was inactive: 3.29%.
For `O=C(Cn1c2c(c(-c3ccccc3)cc1=O)CCCC2)N1CCCCCC1`, the growth inhibition was inactive: 3.36%.
With `Cc1cc(C)n(-c2nc3ccccc3nc2N2CCCCCC2)n1` the growth inhibition was inactive: 1.79%.
With `CCn1c2ccccc2c2nnc(SCc3ccccc3)nc21` the growth inhibition was inactive: -1.82%.
With `COc1ccccc1N1CCN(C(=O)c2cc(-c3ccc(Br)cc3)on2)CC1` the growth inhibition was inactive: -4.65%.
In the case of `CC1CCC(C(C)C)C(OC(=O)COC(=O)c2ccc(=O)[nH]c2)C1` (configuration not stated), the growth inhibition is reported as inactive: 1.53%.
With `CCCN(CCC)C(=O)CSc1nc2ccccc2c(=O)n1C1CCCC1` the growth inhibition was inactive: -6.85%.
With `COc1cccc(-c2csc(N3CCN(C(=O)C4CCCCC4)CC3)n2)c1` the growth inhibition was inactive: -4.78%.
With `CN1CCN(CC(=O)N2CCn3c4c(c5cc(C6CCCCC6)ccc53)CCCC42)CC1` (configuration not stated) the growth inhibition was inactive: 14.6%.
With `Cn1c(=O)c(C(=S)NC(=O)C2CC2)c(N)n(Cc2ccccc2)c1=O` the growth inhibition was inactive: -3.57%.
With `CN(Cc1ccccc1)C(=O)CSc1nc2ccccc2c(=O)n1Cc1ccco1` the growth inhibition was inactive: 1.19%.
For `CCS(=O)(=O)n1nc(-c2ccccc2)nc1SCc1ccccc1`, the growth inhibition was inactive: -2.71%.
In the case of `OC1(c2cccc(C(F)(F)F)c2)CCN(c2ncnc3c2[nH]c2ccc(F)cc23)CC1`, the growth inhibition is reported as inactive: 0.43%.
With `Oc1c(C(c2cccs2)N2CCN(c3cccc(Cl)c3)CC2)sc2ncnn12` (configuration not stated) the growth inhibition was inactive: -3.75%.
With `CCCC1=C(C(=O)OCC)C(c2cc(Cl)cc(OC)c2OCC(=O)OCC)NC(=O)N1` (configuration not stated) the growth inhibition was inactive: 0.91%.
With `CC1CC(C)CN(C(=O)CSc2nnc(-c3ccc(Cl)s3)o2)C1` (configuration not stated) the growth inhibition was inactive: 7.72%.
With `COc1ccc(/C(O)=C2\C(=O)C(=O)N(CC3CCCO3)C2c2cc(OC)ccc2OC)cc1` (configuration not stated) the growth inhibition was inactive: -4.82%.
For `CCOC(=O)c1cn(CC)c2cc(N3CCOCC3)c(F)cc2c1=O`, the growth inhibition was inactive: 4.05% [at 50 µM].
For `CCc1c(C)nc2cc(-c3cc(OC)cc(OC)c3)nn2c1N1CCCC1`, the growth inhibition was inactive: 0.39%.
With `N#Cc1nc(COc2ccccc2F)oc1NCCc1ccccc1` the growth inhibition was inactive: 2.33%.
With `O=C(CCc1nc(-c2ccccc2F)no1)Nc1ccc(Oc2ccccc2)cc1` the growth inhibition was inactive: 5.17%.
With `COC(=O)c1c(NC(=O)c2ccc(C)o2)sc2c1CCCCC2` the growth inhibition was inactive: 5.05%.
In the case of `CC(C)(C)c1ccc(OCc2nc(-c3ccccn3)no2)c(Br)c1`, the growth inhibition is reported as inactive: 2.12%.
With `O=C(OC1CCCCC1)c1ccc(NC(=O)c2ccco2)cc1` the growth inhibition was inactive: 2.7%.
For `c1ccc(CSc2nnc(-c3cccs3)n2Cc2ccco2)cc1`, the growth inhibition was inactive: 6.33%.
For `CCCCn1c(=O)n(Cc2cccc(F)c2)c(=O)c2c1ncn2Cc1ccco1`, the growth inhibition was inactive: -0.15%.
For `CC1=CC(C)(C)N(C(=O)CSc2nnc(-c3ccccc3)o2)c2ccc(C)cc21`, the growth inhibition was inactive: -24.4%.
In the case of `CCOC(=O)c1cc(CC)sc1NC(=O)Cc1ccsc1`, the growth inhibition is reported as inactive: 7.24%.
In the case of `COc1ccc(Oc2cn[nH]c2-c2ccc(O)cc2O)cc1`, the growth inhibition is reported as inactive: 13.1%.
For `Cc1cc(/C=C(/C#N)c2cccc(F)c2)c(C)n1-c1cccnc1`, the growth inhibition was inactive: -2.11%.
With `CN(c1ccccc1)S(=O)(=O)c1ccc(C(=O)Nc2nnc(-c3ccc(F)cc3)o2)cc1` the growth inhibition was inactive: -11.8%.
For `COc1cccc(-c2nnc(NC(=O)c3ccc(S(=O)(=O)N(CC(C)C)CC(C)C)cc3)o2)c1`, the growth inhibition was inactive: -1.41%.
For `Cc1cc(C)c2[nH]c(=O)c(C(c3nnnn3CC3CCCO3)N3CCCC(C)C3)cc2c1` (configuration not stated), the growth inhibition was inactive: 8.66%.
In the case of `O=C(O)CCC(=O)N1CCc2cc(S(=O)(=O)N3CCC(Cc4ccccc4)CC3)ccc21`, the growth inhibition is reported as inactive: -5.1%.
With `COc1ccc(-c2[nH]ncc2-c2ccc(Cl)cc2)c(O)c1` the growth inhibition was inactive: 19.1%.
In the case of `CCn1c(C(=O)OC)cc2c1ccn2-c1ccc(F)cc1`, the growth inhibition is reported as inactive: 2.37%.
With `Cc1ccc2cc(CN(Cc3ccccc3)Cc3nnnn3C3CCCC3)c(=O)[nH]c2c1` the growth inhibition was inactive: -12.1%.
In the case of `Cn1c(-c2ccc3c(c2)OCO3)cnc1N`, the growth inhibition is reported as inactive: -8.44%.
In the case of `CCOc1cc(C)c(C(C)C)cc1S(=O)(=O)N1CC(C)OC(C)C1` (configuration not stated), the growth inhibition is reported as inactive: 15.5%.
With `CC(C)Cn1c(N)c(C(=O)NCc2cccs2)c2nc3ccccc3nc21` the growth inhibition was inactive: 11.5%.
With `Cc1ccc(Cn2ncn3c(cc4ccccc43)c2=O)cc1` the growth inhibition was inactive: 5.85%.
With `CCOC(=O)c1cnc(-n2nc(C)cc2C)nc1N(CC)CC` the growth inhibition was inactive: 4.97%.
In the case of `O=C(C1CC1)N1CCc2cc(S(=O)(=O)NCCC3=CCCCC3)ccc21`, the growth inhibition is reported as inactive: 9.41%.
With `C=C(C)Cn1c(N2CCC(Cc3ccccc3)CC2)nc2c1c(=O)[nH]c(=O)n2C` the growth inhibition was inactive: -2.32%.
In the case of `Cc1nn(-c2ccccc2)c2sc(-c3n[nH]c(=S)o3)cc12`, the growth inhibition is reported as inactive: -8.44%.
For `Cn1c(CSc2nnc(SCc3ccccc3)s2)nc2ccccc21`, the growth inhibition was inactive: -13.8%.
With `Cc1ccc(C(=O)Nc2nc(COc3ccccc3)cs2)s1` the growth inhibition was inactive: -6.21%.
With `CC(C)N(Cc1nc(-c2ccc(Cl)cc2)no1)C(=O)CCC1CCCC1` the growth inhibition was inactive: 7.13%.
With `CC1CCCCN1S(=O)(=O)c1ccc(C(=O)Nc2nnc(-c3cccs3)o2)cc1` (configuration not stated) the growth inhibition was inactive: 2.23%.
With `CC(C)(C)N1C(=O)Cc2c1nc(N)c1c(N)nc(N3CCCCC3CO)c(C#N)c21` (configuration not stated) the growth inhibition was inactive: -2.72%.
With `C=CCN(CC=C)S(=O)(=O)c1ccc2nc(NC(=O)C(C)C)sc2c1` the growth inhibition was inactive: 2.22%.
With `COc1ccc(-c2noc(Cc3ccc(Cl)cc3)n2)cc1OC` the growth inhibition was inactive: 7.9%.
In the case of `COC(=O)c1ccccc1NC(=O)N1c2ccccc2CC1C` (configuration not stated), the growth inhibition is reported as inactive: 3.49%.
In the case of `CSCc1nnc(NC(=O)c2ccc(S(=O)(=O)N(CC(C)C)CC(C)C)cc2)o1`, the growth inhibition is reported as inactive: 9.06%.
In the case of `Cc1cccn2c(=O)c3cc(C(=O)NCc4ccco4)c(=N)n(CCc4ccccc4)c3nc12`, the growth inhibition is reported as inactive: -3.69%.
In the case of `COc1ccc(-c2noc(CCCc3ccccc3)n2)cc1OC`, the growth inhibition is reported as inactive: 3.3%.
In the case of `Cc1ccc(S(=O)(=O)Nc2cccc3ncccc23)s1`, the growth inhibition is reported as inactive: -6.86%.
For `CCCc1nc(SC2CCCC2)c2c(=O)n(C)c(=O)n(C)c2n1`, the growth inhibition was inactive: 9.04%.
With `O=C(Nc1cccc(Cl)c1)N(CCN1CCOCC1)Cc1cccc(Cl)c1` the growth inhibition was inactive: 18.8% [at 50 µM].
With `O=c1n(Cc2ccccc2)c2cc(Cl)cnc2n1Cc1ccccc1` the growth inhibition was inactive: 6.2%.
In the case of `O=S(=O)(Nc1ccc2oc(-c3ccccc3)nc2c1)c1ccccc1`, the growth inhibition is reported as inactive: -12.9%.
For `O=C(NC1CCCCC1)c1nc2c(nnn2Cc2ccccc2Cl)c(=O)[nH]1`, the growth inhibition was inactive: 13.2%.
In the case of `CCCCOn1c(C)c(C(=O)OCC)c2c3nonc3ccc21`, the growth inhibition is reported as inactive: 1.71%.
